Measurements reported in PMC3546041.
No constants are given. Whether binding was seen depends on the method and setting. For some of these results: Binding seen in cells or lysates may run through a third protein. Some binding calls cover weakened binding; strength is not graded here. For some of these results: Tags and fused reporters may be left off the sequences shown.

Columns and labels:
[1] = molecular target: GFP-fused full-length MBD2 (mammalian cells) (mouse) (UniProt Q9Z2E1); experiment: co-IP; HEK293-EBNA cells co-expressing GFP- and RFP-tagged proteins; GBP-bound beads; 274 mM NaCl; Western blot with anti RFP
[2] = molecular target: GFP-fused full-length MBD2 (mammalian cells) (mouse) (UniProt Q9Z2E1); experiment: fluorescent 3-hybrid assay; C2C12 mouse cells triple transfected with GBP-laminB1, a GFP-labelled bait tethered to the nuclear lamina and an RFP-fused prey; co-localization of GFP and RFP signals in fixed cells
[3] = molecular target: RFP-tagged full-length MBD2 (Sf9) (mouse) (UniProt Q9Z2E1); experiment: pull-down; MBD2R immobilised on beads; MBD2G in solution; proteins extracted with 1 M NaCl lysis buffer; PBS plus 110 mM NaCl, 0.05% NP-40; with or without ethidium bromide 10 ug/ml; Western blot with anti GFP; only the target purified
[4] = molecular target: T1, RFP-fused MBD2 NH2-terminal domain (amino acids 1-152) (Sf9) (mouse) (UniProt Q9Z2E1); experiment: pull-down; Cherry- or RFP-fused MBD2 constructs immobilised on RBP-sepharose beads; full-length MBD2G or MeCP2G in solution; proteins extracted with 1 M NaCl lysis buffer; PBS plus 125 mM NaCl, 0.05% NP-40; Western blot with anti GFP; only the target purified
T1 sequence: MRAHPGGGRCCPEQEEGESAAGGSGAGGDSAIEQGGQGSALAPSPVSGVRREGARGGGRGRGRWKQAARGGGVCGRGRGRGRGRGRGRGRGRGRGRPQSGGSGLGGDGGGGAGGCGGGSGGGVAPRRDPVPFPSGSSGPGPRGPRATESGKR

Row | binding [1] | binding [2] | binding [3] | binding [4] | Substance
1 | binds | binds | – | – | RFP-fused full-length MBD2 (mammalian cells) (from UniProt Q9Z2E1 1-414)
2 | – | – | binds | binds | GFP-tagged full-length MBD2 (Sf9) (from UniProt Q9Z2E1 1-414)
